These results are taken from paper PMC7181751.

For test [1], the target named is T1, Boc (bioregional Cdon-binding protein), endogenous (mouse (endogenous in NIH3T3)) (UniProt Q6AZB0).
T1 sequence: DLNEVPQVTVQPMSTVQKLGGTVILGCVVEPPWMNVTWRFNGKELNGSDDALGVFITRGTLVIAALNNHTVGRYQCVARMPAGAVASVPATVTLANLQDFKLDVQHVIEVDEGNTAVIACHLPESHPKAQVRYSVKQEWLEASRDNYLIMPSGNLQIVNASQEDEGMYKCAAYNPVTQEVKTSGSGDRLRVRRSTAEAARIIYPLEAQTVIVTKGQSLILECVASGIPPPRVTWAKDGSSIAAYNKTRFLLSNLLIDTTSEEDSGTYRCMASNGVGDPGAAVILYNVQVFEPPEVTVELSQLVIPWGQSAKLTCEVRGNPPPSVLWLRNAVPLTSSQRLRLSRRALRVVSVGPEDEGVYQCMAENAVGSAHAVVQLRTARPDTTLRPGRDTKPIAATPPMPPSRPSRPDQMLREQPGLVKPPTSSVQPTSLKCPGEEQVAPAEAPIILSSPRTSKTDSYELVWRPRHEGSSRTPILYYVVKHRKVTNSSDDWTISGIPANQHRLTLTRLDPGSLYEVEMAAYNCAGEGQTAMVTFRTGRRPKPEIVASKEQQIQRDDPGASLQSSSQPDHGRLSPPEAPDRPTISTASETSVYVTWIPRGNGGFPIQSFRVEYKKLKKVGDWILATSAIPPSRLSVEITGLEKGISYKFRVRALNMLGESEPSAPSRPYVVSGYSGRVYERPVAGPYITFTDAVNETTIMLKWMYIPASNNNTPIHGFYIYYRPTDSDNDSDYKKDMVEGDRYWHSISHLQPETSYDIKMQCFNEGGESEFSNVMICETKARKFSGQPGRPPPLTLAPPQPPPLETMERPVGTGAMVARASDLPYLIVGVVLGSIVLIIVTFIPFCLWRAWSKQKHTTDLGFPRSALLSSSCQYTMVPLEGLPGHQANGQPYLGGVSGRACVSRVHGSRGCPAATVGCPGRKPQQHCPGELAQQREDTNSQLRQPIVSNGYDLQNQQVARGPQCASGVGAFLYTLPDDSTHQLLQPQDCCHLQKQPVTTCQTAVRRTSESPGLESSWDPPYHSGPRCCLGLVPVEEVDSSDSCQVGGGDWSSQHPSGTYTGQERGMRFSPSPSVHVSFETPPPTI
The test is described as follows: co-IP; NIH3T3/Cas9 Ptch1 KO cells transfected with mouse Ptch1, recombinant Shh (200 ng/mL) added for 24 h; Shh detected in the immuno-complexes by Western blot; only the binder purified.

For test [2], the target named is T1, Boc (bioregional Cdon-binding protein), endogenous (mouse (endogenous in NIH3T3)). The test is described as follows: co-IP; NIH3T3/Cas9 Ptch1 KO cells transfected with mouse Ptch1, recombinant Shh (200 ng/mL) added for 40 min; Shh detected in the immuno-complexes by Western blot; only the binder purified.

Results are given in words; binding and its absence hold for the method and conditions named. In cells and extracts the contact can be indirect. For some assays here: A result given as binding can be weak or reduced; the word gives no strength.

Take “recombinant Shh N-terminal peptide (ligand)”: the values for the binding result in test [1] and in test [2] were “no binding (only after Shh for 24 h)” and “binds”, respectively.
